Reference: publication PMC8141794
Results are given in words; binding and its absence hold for the method and conditions named. Binding seen in cells or lysates may run through a third protein. A yes stands for co-enrichment or nearness to the bait. Other partners may have been found. Tags and fused reporters may be left off the sequences shown.

The chains behind the UniProt entries cited, without tags or fusion partners.
UniProt P62332: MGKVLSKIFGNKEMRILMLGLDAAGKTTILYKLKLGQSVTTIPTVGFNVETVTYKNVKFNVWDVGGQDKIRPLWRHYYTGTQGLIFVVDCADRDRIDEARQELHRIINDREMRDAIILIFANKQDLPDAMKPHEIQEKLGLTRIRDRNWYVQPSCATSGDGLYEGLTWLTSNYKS
UniProt Q62848: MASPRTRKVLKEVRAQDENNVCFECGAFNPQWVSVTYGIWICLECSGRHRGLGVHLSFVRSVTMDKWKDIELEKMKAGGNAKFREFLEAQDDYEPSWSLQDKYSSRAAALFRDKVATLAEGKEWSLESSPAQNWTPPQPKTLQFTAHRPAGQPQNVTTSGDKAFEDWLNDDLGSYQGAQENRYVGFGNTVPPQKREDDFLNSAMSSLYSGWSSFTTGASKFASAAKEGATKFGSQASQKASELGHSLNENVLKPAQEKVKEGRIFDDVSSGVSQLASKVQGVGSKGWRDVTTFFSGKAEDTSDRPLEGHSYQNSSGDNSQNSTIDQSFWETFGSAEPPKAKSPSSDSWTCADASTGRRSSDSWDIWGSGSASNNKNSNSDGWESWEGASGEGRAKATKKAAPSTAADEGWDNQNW

Molecular target: T1, GFP-tagged human EAAT3 (human) (UniProt P43005)
T1 sequence: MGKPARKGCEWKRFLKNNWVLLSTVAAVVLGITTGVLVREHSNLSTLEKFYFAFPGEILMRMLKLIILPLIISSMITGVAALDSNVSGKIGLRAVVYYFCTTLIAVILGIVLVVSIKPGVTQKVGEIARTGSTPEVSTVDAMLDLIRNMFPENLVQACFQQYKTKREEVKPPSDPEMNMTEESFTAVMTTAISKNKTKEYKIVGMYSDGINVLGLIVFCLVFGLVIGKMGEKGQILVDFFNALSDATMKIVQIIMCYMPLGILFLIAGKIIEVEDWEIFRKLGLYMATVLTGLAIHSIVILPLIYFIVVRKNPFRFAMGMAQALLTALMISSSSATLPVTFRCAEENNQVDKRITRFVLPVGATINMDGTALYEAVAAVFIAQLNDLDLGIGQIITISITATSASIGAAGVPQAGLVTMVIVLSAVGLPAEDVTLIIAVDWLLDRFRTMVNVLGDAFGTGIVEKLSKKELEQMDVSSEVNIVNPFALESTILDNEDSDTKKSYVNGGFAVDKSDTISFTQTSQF
Assay: affinity purification with mass spectrometry; GFP-hEAAT3 or mGFP from HEK293 held on GFP-Trap beads, washed, incubated with 1% CHAPS-solubilized rat brain lysate (8.65 mg) overnight at 4°C; six washes; SDS-PAGE, in-gel digestion, LC-MS/MS; only the target purified

| binding | Substance |
| --- | --- |
| binds | ADP-ribosylation factor 6 (rat) (from UniProt P62332 1-175) |
| binds | ADP-ribosylation factor GTPase-activating protein 1 (rat) (from UniProt Q62848 1-415) |
